# PubChem BioAssay AID1224826, NIAID | 2016
# Assay: 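Genes that change LPS-induced Tnf promoter activity in mouse macrophages when knocked down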 (primary screen)
# Cell system: RAW264.7 G9 macrophages from mouse bearing reporters for p65 (GFP) and the Tnf promoter (mCherry)
# Reagents: siRNA pool against mouse genes, 100 nM
# Time to read-out: 16 h of LPS stimulation, after 2 days of siRNA transfection
# Challenge: bacterial lipopolysaccharide (Salmonella minnesota R595), 10 ng/ml
# Read-out: 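Nuclear mCherry signal of the Tnf promoter reporter measured by imaging after background removal, scaled to each plate median and turned into robust z-scores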
# Scale: Tnf reporter robust z-score: higher = stronger Tnf promoter reporter signal after LPS; Tnf reporter intensity: higher = stronger Tnf promoter reporter signal
# Active means: 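Called active when robust z-score is at most -1.3, matching the median of the Tlr4 knock-down control, or over 3; control wells and wells with under 50 cells never active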
# Calls: active = Tnf reporter clearly lowered or raised; inactive = no clear change in Tnf reporter
# Here is a random part of about 17,000 reagents tested. Of all reagents, about 1,110 (6.6%) got an active call. 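Active means lowered or raised reporter signal; replicate intensities are raw and not normalised per plate.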 Unmarked entries are inactive. Some reagents were tested in more than one well and are listed for each.
gene symbol,Tnf reporter robust z-score,fewer than 50 cells in well,"Tnf reporter intensity, replicate 1","Tnf reporter intensity, replicate 2"
Slc35f2,,fewer than 50 cells per well; well left out of calls,22.2,35.2
Or9a2 (olfactory receptor family 9 subfamily A member 2),0.41,enough cells in well,107,134
Slc2a9,,fewer than 50 cells per well; well left out of calls,19.7,57.7
Ggps1 (geranylgeranyl diphosphate synthase 1),0.32,enough cells in well,278,267
"Tas2r134 (taste receptor, type 2, member 134)",,fewer than 50 cells per well; well left out of calls,101,64.3
Dusp16 (dual specificity phosphatase 16),-0.86,enough cells in well,188,123
Itgax (integrin alpha X),-0.4,enough cells in well,225,117
Hnrnpul1 (heterogeneous nuclear ribonucleoprotein U-like 1),-0.52,enough cells in well,185,166
Sgpl1 (sphingosine phosphate lyase 1),0.74,enough cells in well,130,123
Vps37b (vacuolar protein sorting 37B),0.71,enough cells in well,240,276
Asph (aspartate-beta-hydroxylase),-0.69,enough cells in well,125,132
"Brca1 (breast cancer 1, early onset)",,fewer than 50 cells per well; well left out of calls,79.1,105
Flrt1 (fibronectin leucine rich transmembrane protein 1),0.3,enough cells in well,259,106
Ctdp1 (CTD phosphatase subunit 1),-0.09,enough cells in well,217,208
Golga4 (golgin A4),-0.03,enough cells in well,193,328
Spa17 (sperm autoantigenic protein 17),-0.88,enough cells in well,131,120
Cysltr2 (cysteinyl leukotriene receptor 2),0.85,enough cells in well,276,380
Dok4 (docking protein 4),1.35,enough cells in well,308,328
Med1 (mediator complex subunit 1),-0.65,enough cells in well,190,151
"Syne4 (spectrin repeat containing, nuclear envelope family member 4)",-0.36,enough cells in well,184,162
Syt11 (synaptotagmin XI),1.3,enough cells in well,163,139
Or6d12 (olfactory receptor family 6 subfamily D member 12),,fewer than 50 cells per well; well left out of calls,199,46.1
Cldn7 (claudin 7),-0.77,enough cells in well,82.3,184
Aplp1 (amyloid beta precursor like protein 1),,fewer than 50 cells per well; well left out of calls,93.8,48.7

Just “Tnf reporter intensity, replicate 2” (5 entries from above):
Ggps1 (geranylgeranyl diphosphate synthase 1)	267
Tas2r134 (taste receptor, type 2, member 134)	64.3
Dusp16 (dual specificity phosphatase 16)	123
Itgax (integrin alpha X)	117
Hnrnpul1 (heterogeneous nuclear ribonucleoprotein U-like 1)	166

Continued:
gene symbol,Tnf reporter robust z-score,fewer than 50 cells in well,"Tnf reporter intensity, replicate 1","Tnf reporter intensity, replicate 2"
Cops8 (COP9 signalosome subunit 8),-0.13,enough cells in well,167,179
Mmd2 (monocyte to macrophage differentiation-associated 2),0.21,enough cells in well,167,156
Syt2 (synaptotagmin II),-0.36,enough cells in well,111,75
Pik3cb,0.54,enough cells in well,241,182
Pik3cb,0.45,enough cells in well,303,105
Plac8 (placenta-specific 8),2.63,enough cells in well,249,188
Stk11 (serine/threonine kinase 11),0.42,enough cells in well,200,0
Gstp3 (glutathione S-transferase pi 3),1.82,enough cells in well,358,306
Or8c17 (olfactory receptor family 8 subfamily C member 17),3.75 (active),enough cells in well,275,200
Gprasp3,-0.63,enough cells in well,166,90.5
Loxl2 (lysyl oxidase-like 2),-0.04,enough cells in well,171,158
Nop16 (NOP16 nucleolar protein),-0.3,enough cells in well,148,178
Ipo4 (importin 4),-1.74 (active),enough cells in well,98,41.9
Hgs (HGF-regulated tyrosine kinase substrate),-0.92,enough cells in well,268,46
Plekhf1 (pleckstrin homology and FYVE domain containing 1),-0.59,enough cells in well,116,91
Or8g17 (olfactory receptor family 8 subfamily G member 17),-0.88,enough cells in well,144,73.4
Mettl28 (methyltransferase like 28),0.61,enough cells in well,258,97.9
Irf4 (interferon regulatory factor 4),0.18,enough cells in well,217,186
Timm44 (translocase of inner mitochondrial membrane 44),1.78,enough cells in well,160,173
Dmgdh (dimethylglycine dehydrogenase precursor),-0.26,enough cells in well,208,192
Tctn3 (tectonic family member 3),,fewer than 50 cells per well; well left out of calls,193,61.2
Ptprn (protein tyrosine phosphatase receptor type N),-0.55,enough cells in well,332,113
Apom (apolipoprotein M),-0.67,enough cells in well,144,115
Psen2 (presenilin 2),0.41,enough cells in well,259,238
Inhca (inhibitor of carbonic anhydrase),1.01,enough cells in well,304,117
Nat14 (N-acetyltransferase 14),,fewer than 50 cells per well; well left out of calls,122,86.9
Whr1 (winged helix repair factor 1),3.53 (active),enough cells in well,377,185
AI854703 (expressed sequence AI854703),-1.13,enough cells in well,147,97.9
Kif5c (kinesin family member 5C),0.48,enough cells in well,232,208
Mcm10 (minichromosome maintenance 10 replication initiation factor),-1.15,enough cells in well,171,43.9
"Gvin1 (GTPase, very large interferon inducible 1)",0.56,enough cells in well,236,201
Necab3 (N-terminal EF-hand calcium binding protein 3),1.66,enough cells in well,253,270
Slc44a1,-0.27,enough cells in well,337,143
Flrt2 (fibronectin leucine rich transmembrane protein 2),0.71,enough cells in well,299,174
